In all, about 53,000 sequences went through this assay and about 3,700 (7%) were called active.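 How the source made its calls: active means gene knockdowns whose robust z-score for IL-1 alpha signal is at least 2 or at most -2, so actives lie on both sides; inactive means the rest.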 The list shows a part of the results.
Assay: Components of the Cytosolic LPS Sensing Pathway: Gene Identification via Genome-wide siRNA Screen;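 further: robust z of the log signal after scaling to non-targeting control siRNA wells of the plate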
Conditions: RAW264.7 macrophages, IL-1a HTRF, actives lie on both sides, screened at 100 nM (by protocol), cells primed 5 h with Pam3CSK4 first
Summary of the method: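 Supernatant IL-1a by HTRF from RAW264.7 cells primed with Pam3CSK4 (5 hours) and transfected with LipidA (24 hour) after 48h siRNA knockdown at 100 nM; cell viability checked with CellTiter-Glo.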

Row | Sequence | z-score
1 | GGAAUGUGACUGGGCUAGATT against Txndc15 | inactive: -0.367
2 | GGCACAUGGCAAUUCAUCATT against Tm4sf20 | inactive: -1.08
3 | GGAUAUUGAUUCAGUCAAGTT against Rac2 | inactive: -1.16
4 | GGAACCCAUCUCUCAAGCATT against Atp5g1 | inactive: 0.563
5 | GGCUGAUUAUAUUUUUGGUTT against Ush1g | inactive: 0.671
6 | GGAUUACGAGAACAAAAACTT against Jag1 | inactive: -0.774
7 | CCACUUAGGUUAGAAAGAATT against R3hdm1 | inactive: -0.77
8 | GCAGGUAAGUUAAAUGAUGTT against Ccdc148 | inactive: 0.961
9 | GGAAUAAAGCUACAUUGUUTT against Arhgap11a | inactive: -0.364
10 | GGGCCUUGAGCUCUAUUUATT against Derl3 | inactive: -0.485
11 | CGGGAUCAGGUUUCACUGATT against Mettl25 | inactive: -1
12 | CCAGGUGUACGUCCUACAATT against Pofut2 | inactive: 0.543
13 | CCUUGGCAGGUAUAGUGUUTT against Klk9 | inactive: -1.09
14 | GGUGUUUACUAGUUUCUGATT against Neurod6 | inactive: -0.593
15 | CGCCCUGUUUGGUGAACUUTT against Pcdhga2 | inactive: 0.196
16 | GCUAAAGUUCCAAUAUGGGTT against Mepce | inactive: -0.162
17 | GGGCUAUCCUUCUGAAUUUTT against Csnk1d | inactive: 1.46
18 | GUGCAAACGGCAAACAUUCTT against 1700001G17Rik | inactive: 1.89
19 | GGAACGGAUUCUAUCCAAUTT against Omt2b | inactive: -0.229
20 | GGAACACUUGGGAUCCAGATT against Tmem62 | inactive: -1.05
21 | AUCCAUUUUGUGCUAGGCATT against Cacfd1 | inactive: 0.473
22 | CAAACUGGGUCCCAAUGAATT against Ndufa4 | active: 2.7

Row | Sequence | z-score
23 | GGUAGAAUUGUGAUCUCAGTT against Bco2 | inactive: -0.411
24 | GUGGUGGGAUACACCAACUTT against Gtpbp6 | inactive: -0.0236
25 | GGACUUUGUGAAGGACUCUTT against Gatd1 | active: -2.56
26 | CGUGCUAGUGACCAUUUACTT against Limch1 | inactive: 0.625
27 | GCUCCUCAUUAAGGCUGUCTT against Mybphl | inactive: -1.41
28 | GGGAGCUCUAAAAAAAGUGTT against Olfr390 | inactive: 1.72
29 | GGGAGAAAAUCCAUUAUAUTT against Hecw1 | inactive: 1.87
30 | GCAAAGGAACGAGUUUGAGTT against Ucma | inactive: 0.41
31 | GCUGAACAACGAUUGCUCATT against Lypd1 | inactive: -0.782
32 | GGACGUAAUCAACAUAGCUTT against Zbtb40 | inactive: -0.545
33 | GGGAAGGUAUAAGACCUUUTT against Olfr509 | inactive: 0.9
34 | GCCUUCUGUUGGUUAAUACTT against Tsc22d3 | inactive: 1.23
35 | GCCUUUAGCUCCAUUCACUTT against Zfyve1 | inactive: -1.89
36 | GCUACAAUCUUUUAGGUCUTT against Tcta | inactive: -0.52
37 | GCAACCAUCGUAGCAGAUCTT against Aaas | inactive: 1.54
38 | GCUGUUUGAAGCUGAUACCTT against Fads3 | inactive: -0.0526
39 | GAGAAUGCUUCAGUGGUGATT against Pcdha9 | inactive: 0.366
40 | GCAGCGAAGAUUUUAAUUCTT against Rerg | inactive: 0.968
41 | GGAGACUGGAUUUUUGGUATT against Ccr1l1 | inactive: 0.131
42 | GGCUAUCUACAAAAUGGUGTT against Vsnl1 | inactive: -1.31
43 | GCCACAAUUUUACUUGGUATT against Ap4s1 | inactive: 0.371
44 | GCACUAGCAGGAUUCAUUGTT against Gabrb2 | inactive: -1.25

From entry 24 up to 42, copied from above:
Row | Sequence | z-score
24 | GUGGUGGGAUACACCAACUTT against Gtpbp6 | inactive: -0.0236
25 | GGACUUUGUGAAGGACUCUTT against Gatd1 | active: -2.56
26 | CGUGCUAGUGACCAUUUACTT against Limch1 | inactive: 0.625
27 | GCUCCUCAUUAAGGCUGUCTT against Mybphl | inactive: -1.41
28 | GGGAGCUCUAAAAAAAGUGTT against Olfr390 | inactive: 1.72
29 | GGGAGAAAAUCCAUUAUAUTT against Hecw1 | inactive: 1.87
30 | GCAAAGGAACGAGUUUGAGTT against Ucma | inactive: 0.41
31 | GCUGAACAACGAUUGCUCATT against Lypd1 | inactive: -0.782
32 | GGACGUAAUCAACAUAGCUTT against Zbtb40 | inactive: -0.545
33 | GGGAAGGUAUAAGACCUUUTT against Olfr509 | inactive: 0.9
34 | GCCUUCUGUUGGUUAAUACTT against Tsc22d3 | inactive: 1.23
35 | GCCUUUAGCUCCAUUCACUTT against Zfyve1 | inactive: -1.89
36 | GCUACAAUCUUUUAGGUCUTT against Tcta | inactive: -0.52
37 | GCAACCAUCGUAGCAGAUCTT against Aaas | inactive: 1.54
38 | GCUGUUUGAAGCUGAUACCTT against Fads3 | inactive: -0.0526
39 | GAGAAUGCUUCAGUGGUGATT against Pcdha9 | inactive: 0.366
40 | GCAGCGAAGAUUUUAAUUCTT against Rerg | inactive: 0.968
41 | GGAGACUGGAUUUUUGGUATT against Ccr1l1 | inactive: 0.131
42 | GGCUAUCUACAAAAUGGUGTT against Vsnl1 | inactive: -1.31

Additional results follow:

Row | Sequence | z-score
45 | GCUCAACAGCAGUGACGAUTT against Nras | inactive: -0.701
46 | GGAAUCAAAGGUCAAGCCATT against Rnf181 | active: 2.17
47 | GGGAUCACAAUGAAGAAAUTT against Chgb | inactive: -0.46
48 | GCUCCAAUGAGAUCAUUCUTT against Gemin6 | inactive: 0.105
49 | GCUCCAUACUCCGGAUCAGTT against Ftl2-ps | inactive: -1.57
50 | GGAUAUCCACAGAAAAGGGTT against Chst8 | inactive: -0.729
51 | GGAAGAACUAGAGUCAUAUTT against Eps8l1 | inactive: -0.0721
52 | CCAUCUUACAGAUUACCAATT against Slc25a46 | inactive: -0.576
53 | GGACAAUGUGGACUUUGAUTT against Edem2 | active: -2.33
54 | GGGAAGGGAUCCUAUAUUUTT against Lsm12 | inactive: 0.158
55 | CCUCAAAUCAGCUAACUCATT against Mocs1 | inactive: -0.366
56 | GCCGUUAUUGCAUUUGGACTT against Tspan2 | inactive: 0.739
57 | GGAUGAUGAAUUCACACACTT against Calr | active: 3.18
58 | GGGUGGCUAUGGACAAAAATT against Arl5c | inactive: 0.887
59 | GAGCUUCUAAUUCACCCUATT against Abcc6 | inactive: 0.181
60 | GCACUGGUCACUAAUUAUATT against Fabp7 | inactive: 0.163
61 | GGACUGUGAACAACUUUCGTT against Tcim | inactive: -1.07
62 | GGCCAGCUUACCAUUGAUCTT against Acadvl | inactive: 1.88
63 | UUGAAAAGUUCGGAACUGATT against Cd300lb | inactive: -0.308
64 | CGCCUUAUGACAUCCGAUUTT against Dntt | inactive: 0.997
65 | GCUUGCAUUCAUUUCAUACTT against Ezh2 | inactive: 1.27
66 | CACCAAGGUCUGAGUACCUTT against Gm5622 | inactive: 0.755

Row | Sequence | z-score
67 | CCGACGUAGAGAAAAGGGATT against Chchd1 | inactive: -1.8
68 | GGCUACAAAUCCAACUAUCTT against Ppp1r32 | inactive: 0.181
69 | GGAGUUUAUGAAUUUGUUCTT against Etfdh | inactive: -0.0149
70 | GGGCACAACUUCAACAGCUTT against Cmtm8 | inactive: -1.76
71 | GCAACAUUCGAGCUGGAAATT against Snd1 | inactive: 1.02
72 | GCUCUGUGGCCGAAUUCAUTT against Olfr518 | inactive: 1.04
73 | GCUUGCACUGGACUCAACUTT against Pax4 | active: -2.76
74 | GGAGUCAAAAAUGCAUUCATT against Dock6 | inactive: -0.561
75 | GGCUAGCACUGUUUUUACCTT against 1700123O20Rik | inactive: 0.194
76 | GCUGUUGGUUUCUACUCACTT against Adam21 | inactive: -0.0536
77 | GCAAAGACCACACCAUACATT against Otol1 | inactive: 0.0397
78 | GAUCCAUUUCACGUUGAUUTT against Gadd45g | inactive: -0.38
79 | GGGUCAUUAAUGAUGGGCCTT against Pmel | inactive: 0.254
80 | GGAUGGUAUUCCUAACCAGTT against Cdk20 | inactive: -0.314
81 | GGACUGAGGAAGAAUUUAATT against Pdia3 | inactive: -1.2
82 | CGAGAAAAAGACCAUAGUUTT against Btbd10 | inactive: 0.689
83 | GGUCAAGACUGAACUGUGATT against Pcyox1l | inactive: -0.974
84 | CCCUAACUAAUGAUUCAGATT against Klri1 | inactive: 0.0429
85 | GCUUUUCAGCAUGGAUUUATT against Dennd5a | inactive: -0.505
86 | GCGGAUUCAGCUGAUGAUGTT against Sash1 | inactive: -1.32
87 | GGAAAUUGCCAGUAAGGUGTT against Sord | inactive: 1.44
88 | GGCAUUUUUCUUCUCCAAATT against Clns1a | inactive: 0.253

Row | Sequence | z-score
89 | GGUUCACUCCUGAUACCACTT against Ddo | inactive: 1.29
90 | GGGUAUGGGAGGACUUUUGTT against Vmn1r58 | inactive: -1.27
91 | CCCACUUAUAUAUGUAGUUTT against Wdyhv1 | inactive: 0.282
92 | GCAUGGUAAAAUGCUUAAGTT against Dlst | inactive: 0.344
93 | GCAAAUAGUAUUCCUUUGGTT against Akap8 | inactive: 0.343
94 | CCAUUUUUACCUACAUCCATT against Olfr452 | active: 2.43
95 | GCAUGACAAGAGCUAGUUUTT against Olfr564 | inactive: -0.427
96 | GGAGGAAGUUGAAAAUGAATT against Myom2 | inactive: 0.157
97 | GUCAGAGAAGCAUCCAGGATT against Pisd-ps1 | inactive: -1.86
98 | GCAAAUCUACCUCUUCGGGTT against Cdsn | inactive: 0.289
99 | GGAAACGGCAUAGUGCUAUTT against Mrgprb4 | inactive: 1.88
100 | GCCUCAAAUGCAUACAUACTT against Nr2e1 | inactive: -0.676
101 | CGGACUCGAAAGAAGGAAUTT against Srfbp1 | inactive: -0.841
102 | GGAAGAAAAGCAGGAAGCUTT against Hmgn3 | inactive: -0.806
103 | GCCCGACAUCAUGAUUGUUTT against Gne | inactive: 0.246
104 | GGCACAGUUCCUCAGUAUGTT against Hspbap1 | inactive: 1.76
105 | CCAUUCUGAAAGUUUCAUCTT against Olfr350 | inactive: -0.303
106 | CCUAGUUAGAGUAAUUAGGTT against Mras | inactive: -0.0693
107 | GGCGAAAACGGUAAAGCCUTT against H1f4 | inactive: 0.448

— PubChem BioAssay AID1508600 (Functional Genomics Laboratory (NCATS/FGL), 2020)
